# Source: the supplement of paper PMC8728848
# This is one part of the list.
# Assays:
# Assay in all cases: glycan array binding signal (z-score within array); higher = stronger binding
# Conditions in all cases: glycan notation: IUPAC condensed, linker removed
# [1] = target: Fuc(a1-2)[Gal(a1-3)]Gal(b1-4)Glc
# Method in brief: (§1)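 Arrays were curated from the Consortium for Functional Glycomics database, 3228 in total, and kept only where the protein sequence was available. Binding is expressed as a within-array Z-score. This score was averaged across arrays of the same protein sequence at different concentrations or buffers and across linkers, and negative values can be read as non-binding.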
# [2] = target: Fuc(a1-2)[Gal(a1-3)]Gal(b1-4)GlcNAc
# Method in brief: as §1
# [3] = target: Fuc(a1-2)[Gal(a1-3)]Gal(b1-4)GlcNAc(b1-2)Man(a1-3)[Fuc(a1-2)[Gal(a1-3)]Gal(b1-4)GlcNAc(b1-2)Man(a1-6)]Man(b1-4)GlcNAc(b1-4)GlcNAc
# Method in brief: as §1
# [4] = target: Fuc(a1-2)[Gal(a1-3)]Gal(b1-4)GlcNAc(b1-2)Man(a1-3)[Fuc(a1-2)[Gal(a1-3)]Gal(b1-4)GlcNAc(b1-2)Man(a1-6)]Man(b1-4)GlcNAc(b1-4)[Fuc(a1-6)]GlcNAc
# Method in brief: as §1
# [5] = target: Fuc(a1-2)[Gal(a1-3)]Gal(b1-4)GlcNAc(b1-3)GalNAc
# Method in brief: as §1
# [6] = target: Fuc(a1-2)[Gal(a1-3)]Gal(b1-4)[Fuc(a1-3)]Glc
# Method in brief: as §1
# [7] = target: Fuc(a1-2)[Gal(a1-3)]Gal(b1-4)[Fuc(a1-3)]GlcNAc
# Method in brief: as §1
# [8] = target: Fuc(a1-2)[Gal(a1-3)]Gal(b1-4)[Fuc(a1-3)]GlcNAc(b1-3)GalNAc
# Method in brief: as §1
# [9] = target: Fuc(a1-2)[Gal(a1-4)]Gal(b1-4)GlcNAc
# Method in brief: as §1
# [10] = target: Fuc(a1-2)[GalNAc(a1-3)]Gal
# Method in brief: as §1
# [11] = target: Fuc(a1-2)[GalNAc(a1-3)]Gal(b1-3)GalNAc(a1-3)[Fuc(a1-2)]Gal(b1-4)GlcNAc
# Method in brief: as §1
# [12] = target: Fuc(a1-2)[GalNAc(a1-3)]Gal(b1-3)GlcNAc
# Method in brief: as §1
# [13] = target: Fuc(a1-2)[GalNAc(a1-3)]Gal(b1-3)GlcNAc(b1-2)Man(a1-3)[Fuc(a1-2)[GalNAc(a1-3)]Gal(b1-3)GlcNAc(b1-2)Man(a1-6)]Man(b1-4)GlcNAc(b1-4)GlcNAc
# Method in brief: as §1
# [14] = target: Fuc(a1-2)[GalNAc(a1-3)]Gal(b1-3)GlcNAc(b1-2)Man(a1-3)[Fuc(a1-2)[GalNAc(a1-3)]Gal(b1-3)GlcNAc(b1-2)Man(a1-6)]Man(b1-4)GlcNAc(b1-4)[Fuc(a1-6)]GlcNAc
# Method in brief: as §1
# [15] = target: Fuc(a1-2)[GalNAc(a1-3)]Gal(b1-3)GlcNAc(b1-3)GalNAc
# Method in brief: as §1
# [16] = target: Fuc(a1-2)[GalNAc(a1-3)]Gal(b1-4)Glc
# Method in brief: as §1
# [17] = target: Fuc(a1-2)[GalNAc(a1-3)]Gal(b1-4)GlcNAc
# Method in brief: as §1
# [18] = target: Fuc(a1-2)[GalNAc(a1-3)]Gal(b1-4)GlcNAc(b1-2)Man(a1-3)[Fuc(a1-2)[GalNAc(a1-3)]Gal(b1-4)GlcNAc(b1-2)Man(a1-6)]Man(b1-4)GlcNAc(b1-4)GlcNAc
# Method in brief: as §1
# [19] = target: Fuc(a1-2)[GalNAc(a1-3)]Gal(b1-4)GlcNAc(b1-2)Man(a1-3)[Fuc(a1-2)[GalNAc(a1-3)]Gal(b1-4)GlcNAc(b1-2)Man(a1-6)]Man(b1-4)GlcNAc(b1-4)[Fuc(a1-6)]GlcNAc
# Method in brief: as §1
# [20] = target: Fuc(a1-2)[GalNAc(a1-3)]Gal(b1-4)GlcNAc(b1-3)Gal(b1-4)GlcNAc
# Method in brief: as §1
# [21] = target: Fuc(a1-2)[GalNAc(a1-3)]Gal(b1-4)GlcNAc(b1-3)Gal(b1-4)GlcNAc(b1-3)Gal(b1-4)GlcNAc
# Method in brief: as §1
# [22] = target: Fuc(a1-2)[GalNAc(a1-3)]Gal(b1-4)GlcNAc(b1-3)GalNAc
# Method in brief: as §1
# [23] = target: Fuc(a1-2)[GalNAc(a1-3)]Gal(b1-4)[Fuc(a1-3)]GlcNAc
# Method in brief: as §1
# [24] = target: Fuc(a1-2)[GalNAc(a1-3)]Gal(b1-4)[Fuc(a1-3)]GlcNAc(b1-3)GalNAc
# Method in brief: as §1
# [25] = target: Fuc(a1-2)[GalNAc(a1-4)]Gal(b1-4)GlcNAc
# Method in brief: as §1
# [26] = target: Fuc(a1-2)[GalNAc(b1-3)]Gal
# Method in brief: as §1
# Fuc(a1-3)GlcNAc = target: Fuc(a1-3)GlcNAc
# Method in brief: as §1
# [27] = target: Fuc(a1-3)[Gal(b1-4)]Glc6S
# Method in brief: as §1
# [28] = target: Fuc(a1-3)[Gal(b1-4)]GlcNAc
# Method in brief: as §1
# [29] = target: Fuc(a1-3)[Gal(b1-4)]GlcNAc(b1-2)Man(a1-3)[Fuc(a1-3)[Gal(b1-4)]GlcNAc(b1-2)Man(a1-6)]Man(b1-4)GlcNAc(b1-4)GlcNAc
# Method in brief: as §1
# [30] = target: Fuc(a1-3)[Gal(b1-4)]GlcNAc(b1-2)Man(a1-3)[Fuc(a1-3)[Gal(b1-4)]GlcNAc(b1-2)Man(a1-6)]Man(b1-4)GlcNAc(b1-4)[Fuc(a1-6)]GlcNAc
# Method in brief: as §1
# [31] = target: Fuc(a1-3)[Gal(b1-4)]GlcNAc(b1-3)Gal(b1-3)[Fuc(a1-4)]GlcNAc
# Method in brief: as §1
# [32] = target: Fuc(a1-3)[Gal(b1-4)]GlcNAc(b1-3)GalNAc
# Method in brief: as §1
# [33] = target: Fuc(a1-3)[Gal(b1-4)]GlcNAc(b1-4)Gal(b1-4)[Fuc(a1-3)]GlcNAc
# Method in brief: as §1
# [34] = target: Fuc(a1-3)[Gal(b1-4)]GlcNAc(b1-4)Gal(b1-4)[Fuc(a1-3)]GlcNAc(b1-4)Gal(b1-4)[Fuc(a1-3)]GlcNAc
# Method in brief: as §1
# [35] = target: Fuc(a1-3)[Gal(b1-4)]GlcNAc(b1-6)GalNAc
# Method in brief: as §1
# [36] = target: Fuc(a1-3)[Gal(b1-4)]GlcNAc(b1-6)[Gal(b1-3)GlcNAc(b1-3)]Gal(b1-4)Glc
# Method in brief: as §1
# [37] = target: Fuc(a1-3)[Gal(b1-4)]GlcNAc(b1-6)[Neu5Ac(a2-3)Gal(b1-3)]GalNAc
# Method in brief: as §1
# [38] = target: Fuc(a1-3)[Gal(b1-4)]GlcNAc6S
# Method in brief: as §1
# [39] = target: Fuc(a1-3)[Gal3S(b1-4)]GlcNAc
# Method in brief: as §1
# [40] = target: Fuc(a1-3)[Gal3S(b1-4)]GlcNAc6S
# Method in brief: as §1
# [41] = target: Fuc(a1-3)[GalNAc(b1-4)]GlcNAc
# Method in brief: as §1
# Fuc(a1-4)GlcNAc = target: Fuc(a1-4)GlcNAc
# Method in brief: as §1
# Fuc(b1-3)GlcNAc = target: Fuc(b1-3)GlcNAc
# Method in brief: as §1
# Gal(a1-2)Gal = target: Gal(a1-2)Gal
# Method in brief: as §1
binder,measurement,setting,value
"RetS (Pseudomonas aeruginosa), Q9HUV7 (protein) MVRLRIAIGLLVSFLLLLLGPMSPAVADDAGVSSVPLQTTATTPSANQNWRLLRDESAQLRIADVLQRKEQFRPLAKRSFIFPASPQAVWLQVQLPAQKVPSWLWIFAPRVQYLDYYLVQDGQLVRDQHTGESRPFQERPLPSRSYLFSLPVDGKPMTLYVRMTSNHPLMAWFDQIDEAGLVGLEKPAYAFGMLLGGMLLLLMYNLIRFAYSRSASSLWLAAVHAALAVCAAANLGLVAFWLPGLKFNQSLTADLGALGAAVSLLWFACSFFRGTAESRLNRLLQGEALLILAVGAIIAFTQQLWFSWLIYLLVILSSLSVPLIAAWHWYRGYQPARLIVAGMIVFNAGFMVFLPVLFGTKQLDPGWLVLGVFSFATLAGLVLSVSLTERQRLIQQLNLQQRTSEAAHTAELQTKAEFLAKISHEIRTPMNGVLGMTELLLGTPLSAKQRDYVQTIHSAGNELLTLINEILDISKLESGQIELDEVQFDLNALIEDCLDIFRVKAEQQRIELISFTQPQVPRVIGGDPTRLRQVVLSLLDNAFKQTEEGEILLVVALDDQGETPRLRIAVQDSGHPFDAKEREALLTAELHSGDFLSASKLGSHLGLIIARQLVRLMGGEFGIQSGSSQGTTLSLTLPLDPQQLENPTADLDGPLQGARLLVVDDNETCRKVLVQQCSGWGLNVSAVSSGKEALAQLRTKAHLREYFDVVLLDQDMPGMTGMQLAAKIKEDPNLNHDILLIMLTGISNAPSKIIARNAGIKRILAKPVAGYTLKATLADELAQRGVSGVTNYLQPAKEAQAPSLPSDFRILVAEDNSISTKVIRGMLNKLNLQPDTASNGQEALSAMKATQYDLVLMDCEMPVLDGFSATEQLRAWEAHEQRPHTPVVALTAHILSEHKERARLVGMDGHMAKPVELSQLRELIAYWVGERDRRRQGDALPS",glycan array binding signal (z-score),[1],0.118
same,glycan array binding signal (z-score),[2],-0.167
same,glycan array binding signal (z-score),[3],-0.205
same,glycan array binding signal (z-score),[4],0.113
same,glycan array binding signal (z-score),[5],-0.103
same,glycan array binding signal (z-score),[6],-0.851
same,glycan array binding signal (z-score),[7],-0.98
same,glycan array binding signal (z-score),[8],-0.724
same,glycan array binding signal (z-score),[9],-0.96
same,glycan array binding signal (z-score),[10],0.101
same,glycan array binding signal (z-score),[11],0.731
same,glycan array binding signal (z-score),[12],1.31
same,glycan array binding signal (z-score),[13],0.22
same,glycan array binding signal (z-score),[14],0.462
same,glycan array binding signal (z-score),[15],-0.612
same,glycan array binding signal (z-score),[16],0.272
same,glycan array binding signal (z-score),[17],-0.521
same,glycan array binding signal (z-score),[18],-1.25
same,glycan array binding signal (z-score),[19],1.59
same,glycan array binding signal (z-score),[20],0.632
same,glycan array binding signal (z-score),[21],2.47
same,glycan array binding signal (z-score),[22],-0.762
same,glycan array binding signal (z-score),[23],-0.056
same,glycan array binding signal (z-score),[24],1.18
same,glycan array binding signal (z-score),[25],0.645
same,glycan array binding signal (z-score),[26],0.079
same,glycan array binding signal (z-score),Fuc(a1-3)GlcNAc,-0.545
same,glycan array binding signal (z-score),[27],-0.456
same,glycan array binding signal (z-score),[28],-0.197
same,glycan array binding signal (z-score),[29],-0.221
same,glycan array binding signal (z-score),[30],-0.419
same,glycan array binding signal (z-score),[31],-0.855
same,glycan array binding signal (z-score),[32],-0.52
same,glycan array binding signal (z-score),[33],-0.567
same,glycan array binding signal (z-score),[34],-0.414
same,glycan array binding signal (z-score),[35],1.36
same,glycan array binding signal (z-score),[36],-0.043
same,glycan array binding signal (z-score),[37],-0.508
same,glycan array binding signal (z-score),[38],-0.381
same,glycan array binding signal (z-score),[39],0.507
same,glycan array binding signal (z-score),[40],1.05
same,glycan array binding signal (z-score),[41],-0.833
same,glycan array binding signal (z-score),Fuc(a1-4)GlcNAc,-1.12
same,glycan array binding signal (z-score),Fuc(b1-3)GlcNAc,0.448
same,glycan array binding signal (z-score),Gal(a1-2)Gal,-0.508

# Two entries from above, tab-delimited.
binder	measurement	setting	value
RetS (Pseudomonas aeruginosa), Q9HUV7 (protein) MVRLRIAIGLLVSFLLLLLGPMSPAVADDAGVSSVPLQTTATTPSANQNWRLLRDESAQLRIADVLQRKEQFRPLAKRSFIFPASPQAVWLQVQLPAQKVPSWLWIFAPRVQYLDYYLVQDGQLVRDQHTGESRPFQERPLPSRSYLFSLPVDGKPMTLYVRMTSNHPLMAWFDQIDEAGLVGLEKPAYAFGMLLGGMLLLLMYNLIRFAYSRSASSLWLAAVHAALAVCAAANLGLVAFWLPGLKFNQSLTADLGALGAAVSLLWFACSFFRGTAESRLNRLLQGEALLILAVGAIIAFTQQLWFSWLIYLLVILSSLSVPLIAAWHWYRGYQPARLIVAGMIVFNAGFMVFLPVLFGTKQLDPGWLVLGVFSFATLAGLVLSVSLTERQRLIQQLNLQQRTSEAAHTAELQTKAEFLAKISHEIRTPMNGVLGMTELLLGTPLSAKQRDYVQTIHSAGNELLTLINEILDISKLESGQIELDEVQFDLNALIEDCLDIFRVKAEQQRIELISFTQPQVPRVIGGDPTRLRQVVLSLLDNAFKQTEEGEILLVVALDDQGETPRLRIAVQDSGHPFDAKEREALLTAELHSGDFLSASKLGSHLGLIIARQLVRLMGGEFGIQSGSSQGTTLSLTLPLDPQQLENPTADLDGPLQGARLLVVDDNETCRKVLVQQCSGWGLNVSAVSSGKEALAQLRTKAHLREYFDVVLLDQDMPGMTGMQLAAKIKEDPNLNHDILLIMLTGISNAPSKIIARNAGIKRILAKPVAGYTLKATLADELAQRGVSGVTNYLQPAKEAQAPSLPSDFRILVAEDNSISTKVIRGMLNKLNLQPDTASNGQEALSAMKATQYDLVLMDCEMPVLDGFSATEQLRAWEAHEQRPHTPVVALTAHILSEHKERARLVGMDGHMAKPVELSQLRELIAYWVGERDRRRQGDALPS	glycan array binding signal (z-score)	[4]	0.113
same	glycan array binding signal (z-score)	[31]	-0.855
